Experiments:
[1] = Distribution coefficient, log D of compound at pH 7.4; conditions: octanol/water
[2] = Solubility of compound in DMSO

Q: With `NS1(=O)=NC(=O)c2ccccc21` (configuration not stated) as the compound, how does the logD [1] read?
A: The logD was under -1.3.

Q: And the solubility [2]?
A: Its solubility is over 1000 µM.
